# Source: the supplement of paper PMC10849652
# Chains of the proteins cited; added tags and fusions are not shown. Lines headed by an entry give the natural chain unless they say otherwise; changes in a name come on top.
# UniProt Q96E29: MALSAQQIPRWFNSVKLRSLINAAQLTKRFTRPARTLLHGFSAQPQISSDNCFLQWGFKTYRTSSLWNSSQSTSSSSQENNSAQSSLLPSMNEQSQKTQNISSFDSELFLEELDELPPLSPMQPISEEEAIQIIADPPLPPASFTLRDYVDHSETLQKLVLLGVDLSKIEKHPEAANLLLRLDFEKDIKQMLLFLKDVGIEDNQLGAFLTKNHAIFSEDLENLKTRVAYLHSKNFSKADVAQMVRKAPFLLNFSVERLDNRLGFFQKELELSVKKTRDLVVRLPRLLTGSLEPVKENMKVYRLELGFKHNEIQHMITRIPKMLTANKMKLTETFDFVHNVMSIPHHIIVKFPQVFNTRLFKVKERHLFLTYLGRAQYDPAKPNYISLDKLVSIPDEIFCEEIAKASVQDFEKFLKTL
# UniProt G3V1V0: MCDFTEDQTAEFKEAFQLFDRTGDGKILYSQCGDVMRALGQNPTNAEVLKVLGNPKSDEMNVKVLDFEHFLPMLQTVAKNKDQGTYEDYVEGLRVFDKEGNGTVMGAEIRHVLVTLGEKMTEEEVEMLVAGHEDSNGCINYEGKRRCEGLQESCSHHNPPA
# UniProt B2RTY4: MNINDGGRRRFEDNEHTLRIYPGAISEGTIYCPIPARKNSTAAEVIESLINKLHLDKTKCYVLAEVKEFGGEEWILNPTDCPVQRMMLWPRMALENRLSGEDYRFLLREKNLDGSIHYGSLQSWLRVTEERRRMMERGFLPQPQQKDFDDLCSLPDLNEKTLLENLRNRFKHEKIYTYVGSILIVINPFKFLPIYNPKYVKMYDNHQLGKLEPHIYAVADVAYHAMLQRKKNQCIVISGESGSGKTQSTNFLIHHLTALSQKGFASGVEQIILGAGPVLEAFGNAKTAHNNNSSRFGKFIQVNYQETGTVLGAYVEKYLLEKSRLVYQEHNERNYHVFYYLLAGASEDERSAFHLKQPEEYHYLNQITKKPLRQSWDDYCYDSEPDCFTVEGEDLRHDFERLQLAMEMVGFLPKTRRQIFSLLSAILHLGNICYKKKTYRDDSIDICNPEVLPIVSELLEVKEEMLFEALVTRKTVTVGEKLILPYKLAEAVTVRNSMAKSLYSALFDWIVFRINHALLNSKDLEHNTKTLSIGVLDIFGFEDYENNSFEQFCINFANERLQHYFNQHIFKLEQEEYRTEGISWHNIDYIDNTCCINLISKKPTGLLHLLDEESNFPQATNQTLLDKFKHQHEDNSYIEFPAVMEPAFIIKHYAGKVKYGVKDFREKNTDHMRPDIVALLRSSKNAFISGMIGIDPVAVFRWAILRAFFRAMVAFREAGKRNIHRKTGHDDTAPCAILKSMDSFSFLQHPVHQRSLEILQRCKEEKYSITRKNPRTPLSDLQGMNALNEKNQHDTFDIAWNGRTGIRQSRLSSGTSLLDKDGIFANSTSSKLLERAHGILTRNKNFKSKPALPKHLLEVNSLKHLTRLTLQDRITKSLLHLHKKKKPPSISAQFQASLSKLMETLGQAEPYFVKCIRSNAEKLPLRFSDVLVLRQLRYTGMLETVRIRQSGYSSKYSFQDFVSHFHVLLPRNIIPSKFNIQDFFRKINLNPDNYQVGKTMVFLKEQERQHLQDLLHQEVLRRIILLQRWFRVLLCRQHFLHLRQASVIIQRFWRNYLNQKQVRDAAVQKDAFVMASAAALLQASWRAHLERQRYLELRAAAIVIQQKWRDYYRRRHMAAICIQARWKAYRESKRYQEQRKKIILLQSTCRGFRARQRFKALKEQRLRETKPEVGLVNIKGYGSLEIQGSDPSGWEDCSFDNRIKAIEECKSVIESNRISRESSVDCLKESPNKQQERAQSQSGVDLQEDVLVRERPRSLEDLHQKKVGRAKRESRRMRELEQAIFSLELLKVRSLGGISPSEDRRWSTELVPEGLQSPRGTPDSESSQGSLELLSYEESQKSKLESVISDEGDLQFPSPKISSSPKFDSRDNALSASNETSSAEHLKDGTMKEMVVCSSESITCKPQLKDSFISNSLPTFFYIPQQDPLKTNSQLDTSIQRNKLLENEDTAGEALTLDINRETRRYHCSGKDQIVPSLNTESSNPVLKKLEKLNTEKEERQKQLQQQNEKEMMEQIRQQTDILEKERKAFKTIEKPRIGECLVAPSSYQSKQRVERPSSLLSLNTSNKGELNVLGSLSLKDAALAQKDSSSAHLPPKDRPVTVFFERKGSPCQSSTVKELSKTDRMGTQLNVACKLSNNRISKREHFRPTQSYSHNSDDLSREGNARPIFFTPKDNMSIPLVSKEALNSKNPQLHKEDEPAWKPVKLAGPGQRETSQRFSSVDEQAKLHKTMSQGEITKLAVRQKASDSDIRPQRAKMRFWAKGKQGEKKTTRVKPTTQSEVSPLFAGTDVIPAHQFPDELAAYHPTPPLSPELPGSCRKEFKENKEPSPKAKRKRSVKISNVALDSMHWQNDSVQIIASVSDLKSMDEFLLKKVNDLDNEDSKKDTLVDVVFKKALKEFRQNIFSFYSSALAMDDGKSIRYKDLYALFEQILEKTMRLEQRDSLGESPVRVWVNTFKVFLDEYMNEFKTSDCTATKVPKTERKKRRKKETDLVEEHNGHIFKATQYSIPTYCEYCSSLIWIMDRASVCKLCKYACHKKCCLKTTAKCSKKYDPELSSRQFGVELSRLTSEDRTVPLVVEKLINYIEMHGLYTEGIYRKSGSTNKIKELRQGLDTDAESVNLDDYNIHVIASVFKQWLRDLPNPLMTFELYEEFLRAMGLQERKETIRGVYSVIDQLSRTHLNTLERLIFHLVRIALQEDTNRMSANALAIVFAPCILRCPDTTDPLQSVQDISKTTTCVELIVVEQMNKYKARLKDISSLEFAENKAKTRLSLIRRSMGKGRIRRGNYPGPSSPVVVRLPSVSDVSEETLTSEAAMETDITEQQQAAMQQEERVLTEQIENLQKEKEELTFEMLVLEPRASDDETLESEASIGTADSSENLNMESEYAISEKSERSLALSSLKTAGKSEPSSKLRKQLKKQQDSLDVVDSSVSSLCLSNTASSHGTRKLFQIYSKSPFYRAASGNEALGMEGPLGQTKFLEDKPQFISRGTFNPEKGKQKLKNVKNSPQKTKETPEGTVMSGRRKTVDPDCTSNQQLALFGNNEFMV
# UniProt Q9H019: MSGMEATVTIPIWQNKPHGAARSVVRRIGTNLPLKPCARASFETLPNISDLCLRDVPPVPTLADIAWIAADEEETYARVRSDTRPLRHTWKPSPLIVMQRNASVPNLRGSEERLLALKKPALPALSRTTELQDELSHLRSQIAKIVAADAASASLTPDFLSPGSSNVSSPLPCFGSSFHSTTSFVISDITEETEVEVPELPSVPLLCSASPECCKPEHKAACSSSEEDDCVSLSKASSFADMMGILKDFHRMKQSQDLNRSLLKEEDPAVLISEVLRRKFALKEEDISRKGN
# UniProt Q9NYA4: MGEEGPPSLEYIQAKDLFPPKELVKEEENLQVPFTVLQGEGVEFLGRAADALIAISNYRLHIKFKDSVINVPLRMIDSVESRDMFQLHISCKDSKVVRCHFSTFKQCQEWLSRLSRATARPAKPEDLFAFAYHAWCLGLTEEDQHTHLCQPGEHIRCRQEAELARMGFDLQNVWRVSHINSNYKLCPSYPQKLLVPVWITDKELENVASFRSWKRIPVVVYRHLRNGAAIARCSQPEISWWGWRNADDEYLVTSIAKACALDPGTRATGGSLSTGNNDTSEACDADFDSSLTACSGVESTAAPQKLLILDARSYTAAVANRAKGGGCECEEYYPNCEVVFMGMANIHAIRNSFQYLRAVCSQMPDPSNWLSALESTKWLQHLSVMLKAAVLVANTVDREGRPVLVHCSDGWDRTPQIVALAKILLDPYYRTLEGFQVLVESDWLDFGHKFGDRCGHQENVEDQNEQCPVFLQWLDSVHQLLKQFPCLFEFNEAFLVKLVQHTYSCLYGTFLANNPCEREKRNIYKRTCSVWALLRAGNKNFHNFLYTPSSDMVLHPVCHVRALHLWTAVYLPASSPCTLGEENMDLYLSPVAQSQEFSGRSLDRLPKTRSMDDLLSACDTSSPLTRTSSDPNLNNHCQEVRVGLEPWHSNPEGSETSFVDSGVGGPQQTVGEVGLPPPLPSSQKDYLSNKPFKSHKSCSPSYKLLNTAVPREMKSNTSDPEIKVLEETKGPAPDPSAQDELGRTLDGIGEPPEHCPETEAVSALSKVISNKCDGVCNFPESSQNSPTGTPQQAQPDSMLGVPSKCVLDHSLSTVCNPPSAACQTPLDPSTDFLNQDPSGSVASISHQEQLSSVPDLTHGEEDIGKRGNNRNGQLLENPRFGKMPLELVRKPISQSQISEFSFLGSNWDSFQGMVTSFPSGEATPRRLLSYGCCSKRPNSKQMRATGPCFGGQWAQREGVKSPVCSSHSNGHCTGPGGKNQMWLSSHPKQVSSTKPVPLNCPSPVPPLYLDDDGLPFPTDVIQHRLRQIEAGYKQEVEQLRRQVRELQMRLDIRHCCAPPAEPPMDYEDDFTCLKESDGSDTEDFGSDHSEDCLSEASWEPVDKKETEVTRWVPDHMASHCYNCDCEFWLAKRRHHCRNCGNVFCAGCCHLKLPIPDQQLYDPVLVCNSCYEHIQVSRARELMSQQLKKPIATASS
# UniProt Q7Z6M4: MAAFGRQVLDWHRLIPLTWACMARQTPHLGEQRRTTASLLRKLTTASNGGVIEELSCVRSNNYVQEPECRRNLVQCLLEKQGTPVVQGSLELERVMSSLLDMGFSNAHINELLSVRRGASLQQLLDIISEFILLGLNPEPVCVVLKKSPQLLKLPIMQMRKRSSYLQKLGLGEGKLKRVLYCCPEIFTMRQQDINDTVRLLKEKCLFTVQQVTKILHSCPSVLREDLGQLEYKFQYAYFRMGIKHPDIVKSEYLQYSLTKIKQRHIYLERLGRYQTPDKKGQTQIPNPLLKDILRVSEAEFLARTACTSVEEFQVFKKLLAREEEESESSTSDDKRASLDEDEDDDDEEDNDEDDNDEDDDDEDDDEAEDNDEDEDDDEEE
# UniProt Q8TAX7: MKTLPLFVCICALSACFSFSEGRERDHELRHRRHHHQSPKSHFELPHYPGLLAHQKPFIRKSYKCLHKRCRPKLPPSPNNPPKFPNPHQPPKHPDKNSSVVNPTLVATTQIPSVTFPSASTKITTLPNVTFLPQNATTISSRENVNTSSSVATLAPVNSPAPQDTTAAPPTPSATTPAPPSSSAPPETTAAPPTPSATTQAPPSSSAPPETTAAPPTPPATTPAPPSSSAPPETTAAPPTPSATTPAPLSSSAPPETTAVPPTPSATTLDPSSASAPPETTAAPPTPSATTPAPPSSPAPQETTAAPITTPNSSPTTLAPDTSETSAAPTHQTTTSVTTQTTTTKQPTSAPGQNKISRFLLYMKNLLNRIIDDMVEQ
# UniProt Q9NXD2: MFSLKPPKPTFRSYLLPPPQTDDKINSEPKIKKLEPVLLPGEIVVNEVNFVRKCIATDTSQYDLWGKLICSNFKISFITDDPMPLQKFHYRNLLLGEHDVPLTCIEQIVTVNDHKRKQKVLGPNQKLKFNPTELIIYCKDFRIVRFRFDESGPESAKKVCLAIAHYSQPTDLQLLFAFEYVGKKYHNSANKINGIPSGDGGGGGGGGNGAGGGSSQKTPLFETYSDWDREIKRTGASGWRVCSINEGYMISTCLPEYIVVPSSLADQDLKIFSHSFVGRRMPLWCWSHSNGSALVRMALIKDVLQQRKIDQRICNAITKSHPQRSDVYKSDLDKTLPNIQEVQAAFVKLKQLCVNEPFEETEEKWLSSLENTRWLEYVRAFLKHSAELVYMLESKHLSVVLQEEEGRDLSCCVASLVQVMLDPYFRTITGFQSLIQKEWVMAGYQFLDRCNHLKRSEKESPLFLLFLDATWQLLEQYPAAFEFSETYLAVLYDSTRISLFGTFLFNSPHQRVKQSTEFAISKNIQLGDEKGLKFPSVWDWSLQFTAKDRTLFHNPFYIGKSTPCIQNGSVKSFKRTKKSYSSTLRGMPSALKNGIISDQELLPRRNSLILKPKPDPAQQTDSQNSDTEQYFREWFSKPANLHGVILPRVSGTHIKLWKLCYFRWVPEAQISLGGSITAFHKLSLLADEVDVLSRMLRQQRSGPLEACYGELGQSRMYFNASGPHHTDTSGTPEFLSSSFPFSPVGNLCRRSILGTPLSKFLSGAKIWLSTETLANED
# UniProt P13640: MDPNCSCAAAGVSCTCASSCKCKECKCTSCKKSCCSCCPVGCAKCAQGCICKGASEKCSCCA
# The list shows a part of the results.
# What was measured:
# Experiment in all cases: log2 fold change, soluble protein after heating vs DMSO (PISA); higher = thermal stabilisation; K562 cells, 10 uM, 30 min; active = over 0.2 and 3.5 SD of the protein, either way, in both replicates (recomputed)
# [1] = compound: CC1=C(C=C(C=C1)NC(=O)C2=CC(=CC=C2)C(C)(C)C#N)NC3=CC4=C(C=C3)N=CN(C4=O)C
# Outline: (§1)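 Soluble protein was quantified by TMTpro 16plex LC-MS/MS after channel sums were equalised. It was obtained as the supernatant after 21,000xg for 90 min from pooled aliquots of K562 cells (2×10^6 cells/mL, 10 μM compound, 30 min) heated for 3 min across 48°C-58°C and extracted in PBS with 0.5% NP-40 at 4°C. Thermal stability values are relative to control samples and come from duplicates. They are given as log2 fold changes.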
# [2] = compound: CC1=C(C=C(C=C1)NC(=O)C2=CC(=CC=C2)N(C)C)NC(=O)C3=CC=C(C=C3)O
# Outline: as §1
# [3] = compound: CCCc1cc(C)[nH]c(=O)c1CNC(=O)c1cc(-c2ccnc(N3CCN(C)CC3)c2)cc2c1cnn2C(C)C
# Outline: as §1
# [4] = compound: CCN(CC)Cc1ccc2cc(COC(=O)Nc3ccc(C(=O)NO)cc3)ccc2c1 [givinostat]
# Outline: as §1
# [5] = compound: CCN(CCCOc1ccc2c(Nc3cc(CC(=O)Nc4cccc(F)c4)[nH]n3)ncnc2c1)CCOP(=O)(O)O [barasertib]
# Outline: as §1
# [6] = compound: CCn1c(C(=O)N(C2CC2)C2CC2)cc2c3c(ncn3C)c(Nc3cc(C)n(C)n3)nc21
# Outline: as §1
# [7] = compound: CCn1cc(-c2ccnc3[nH]c(-c4cccc(CN(C)C)c4)cc23)c(-c2ccc(NC(=O)N(C)C)cc2)n1
# Outline: as §1
# [8] = compound: CN(CCOC1=CC=C(C=C1)C[C@H]2C(=O)NC(=O)S2)C3=CC=CC=N3 (racemic) [rosiglitazone]
# Outline: as §1
# [9] = compound: CN1C2=C(C3=C1C(=O)N(N=C3)CC4=CC(=CC=C4)N)SC(=C2)S(=O)C
# Outline: as §1
# [10] = compound: CN1CCC(CNc2ccc3ncc(-c4cccc(OC(F)(F)F)c4)n3n2)CC1
# Outline: as §1
# [11] = compound: CCCS(=O)(=O)Nc1ccc(F)c(C(=O)c2c[nH]c3ncc(-c4ccc(Cl)cc4)cc23)c1F [vemurafenib]
# Outline: as §1
# [12] = compound: CC[C@@H]1C(=O)N(C)c2cnc(Nc3ccc(C(=O)NC4CCN(C)CC4)cc3OC)nc2N1C1CCCC1
# Outline: as §1
# [13] = compound: CN(C)CC(=O)Nc1ccc2[nH]c(=O)c3ccccc3c2c1
# Outline: as §1
# [14] = compound: CC1=NC(=CC=C1)C2=C(N=C(N2)C(C)(C)C)C3=CC4=NC=CN=C4C=C3
# Outline: as §1
# [15] = compound: CCCCN(Cc1ccc(C(=O)NO)cc1)C(=O)Nc1ccccc1 [Nexturastat A]
# Outline: as §1
# [16] = compound: CC[C@H](C)[C@@H](C(=O)N[C@@H]([C@@H](C)O)C(=O)N[C@@H](CC(C)C)C(=O)[C@]1(CO1)C)NC(=O)[C@H]([C@@H](C)CC)N(C)C(=O)C [epoxomicin]
# Outline: as §1
# [17] = compound: CC1=CC=C(C=C1)SC2=C3C=C(SC3=CN=C2)C(=O)N
# Outline: as §1
# [18] = compound: CCCS(=O)(=O)Nc1ccc(F)c(C(=O)c2c[nH]c3ncc(Cl)cc23)c1F
# Outline: as §1
# [19] = compound: CC[C@@H]1C(=O)N(C)c2cnc(Nc3ccc(C(=O)N[C@H]4CC[C@H](N5CCN(CC6CC6)CC5)CC4)cc3OC)nc2N1C(C)C [volasertib]
# Outline: as §1
# [20] = compound: CC[C@H](C)N1C=C(C2=C(C=C(C=C21)C3=CN=C(C=C3)N4CCNCC4)C(=O)NCC5=C(C=C(NC5=O)C)C)C
# Outline: as §1
Target,log2 fold change [1],log2 fold change [2],log2 fold change [3],log2 fold change [4],log2 fold change [5],log2 fold change [6],log2 fold change [7],log2 fold change [8],log2 fold change [9],log2 fold change [10],log2 fold change [11],log2 fold change [12],log2 fold change [13],log2 fold change [14],log2 fold change [15],log2 fold change [16],log2 fold change [17],log2 fold change [18],log2 fold change [19],log2 fold change [20]
MTERF3 (UniProt Q96E29),inactive: 0.036,inactive: 0.068,inactive: -0.113,inactive: 0.016,inactive: -0.132,inactive: 0.13,inactive: 0.237,inactive: 0.035,inactive: 0.209,inactive: -0.029,–,–,–,–,–,–,–,–,–,–
MYL6 (UniProt G3V1V0),inactive: -0.267,inactive: 0.003,inactive: -0.007,inactive: -0.021,inactive: -0.059,inactive: -0.035,–,inactive: 0.144,inactive: 0.035,–,inactive: 0.008,inactive: -0.05,inactive: -0.079,–,–,–,–,–,–,–
MYO9A isoform 4 (UniProt B2RTY4),inactive: 0.129,–,–,inactive: 0.084,inactive: -0.029,inactive: 0,inactive: -0.023,inactive: 0.007,inactive: 0.029,inactive: 0.115,inactive: -0.11,–,inactive: -0.035,inactive: -0.089,inactive: 0.17,inactive: -0.01,–,–,–,–
MRPS26 (UniProt Q9BYN8),inactive: 0.021,inactive: -0.083,inactive: -0.056,inactive: 0.098,inactive: 0.026,–,inactive: -0.023,–,inactive: 0.052,inactive: -0.092,inactive: -0.004,inactive: 0.011,inactive: 0.003,inactive: -0.03,inactive: 0.075,inactive: 0.033,inactive: 0.002,inactive: 0.049,inactive: -0.094,–
MTFR1L (UniProt Q9H019),inactive: 0.082,inactive: -0.006,–,inactive: 0.031,inactive: -0.026,–,inactive: -0.186,–,inactive: 0.013,inactive: -0.296,inactive: 0.048,–,inactive: 0.08,inactive: -0.122,inactive: -0.027,inactive: 0.023,inactive: 0.008,inactive: 0.116,active: -0.586,inactive: 0.036
MTMR1 (UniProt Q13613),inactive: -0.175,inactive: 0.067,inactive: 0.083,–,inactive: -0.004,–,inactive: -0.008,inactive: -0.043,inactive: 0.156,inactive: -0.126,inactive: -0.158,inactive: 0.101,inactive: -0.043,inactive: 0.011,inactive: 0.121,inactive: -0.012,inactive: -0.066,inactive: 0.03,inactive: -0.013,–
MXRA8 isoform 2 (UniProt Q9BRK3),inactive: 0.086,inactive: 0.235,inactive: -0.303,inactive: 0.01,inactive: 0.237,inactive: 0.017,–,inactive: 0.065,–,–,inactive: -0.055,–,inactive: -0.547,inactive: -0.106,inactive: -0.13,inactive: -0.403,–,–,–,–
MTMR4 (UniProt Q9NYA4),inactive: -0.089,inactive: 0.061,–,inactive: 0.206,–,inactive: -0.052,–,–,–,–,–,–,–,inactive: 0.076,–,–,–,–,–,–
MRPS16 (UniProt Q9Y3D3),inactive: 0.055,inactive: -0.052,inactive: 0.032,inactive: 0.031,inactive: -0.084,–,inactive: -0.116,–,–,inactive: 0.052,inactive: -0.014,inactive: 0.012,inactive: 0.046,inactive: 0.132,inactive: 0.124,inactive: 0.041,inactive: 0.006,inactive: 0.062,inactive: -0.088,inactive: 0.018
MTERF4 (UniProt Q7Z6M4),inactive: 0.112,inactive: -0.251,inactive: -0.282,inactive: -0.044,–,inactive: -0.237,–,–,inactive: -0.01,–,–,–,–,inactive: -0.004,inactive: -0.197,inactive: 0.02,inactive: -0.047,inactive: 0.037,inactive: 0.004,inactive: -0.006
MYLK (UniProt Q15746),active: 0.832,inactive: 0.108,inactive: -0.154,inactive: -0.132,inactive: 0.032,–,inactive: 0.042,–,inactive: -0.126,inactive: -0.005,inactive: 0.081,inactive: -0.015,inactive: 0.184,inactive: 0.202,–,–,inactive: -0.013,inactive: -0.01,inactive: -0.148,inactive: -0.172
MRPS18C (UniProt Q9Y3D5),inactive: 0.024,inactive: -0.038,inactive: -0.215,inactive: 0.093,inactive: -0.052,inactive: 0.008,inactive: 0.223,inactive: -0.241,inactive: 0.008,inactive: -0.181,inactive: -0.01,inactive: 0.036,inactive: -0.025,inactive: -0.011,inactive: 0.07,inactive: -0.084,inactive: -0.138,inactive: -0.016,inactive: 0.145,–
MUC7 (UniProt Q8TAX7),inactive: -0.186,inactive: -0.269,–,–,inactive: 0.27,–,–,inactive: 0.026,–,–,–,–,–,–,inactive: 0.293,inactive: -0.497,–,–,–,inactive: 0.071
MTMR10 (UniProt Q9NXD2),inactive: 0.143,–,inactive: -0.078,–,inactive: -0.043,–,–,inactive: 0.366,–,–,–,–,–,inactive: 0.104,inactive: -0.358,inactive: -0.04,inactive: -0.017,inactive: -0.117,inactive: -0.136,inactive: -0.039
MRPS21 (UniProt P82921),inactive: 0.015,inactive: -0.059,inactive: -0.018,inactive: -0.016,inactive: -0.156,–,–,–,inactive: -0.205,–,inactive: 0.079,inactive: 0.062,inactive: 0.058,inactive: 0.107,inactive: 0.093,inactive: 0.064,inactive: 0.215,inactive: 0.132,inactive: -0.008,inactive: 0.063
MRPS15 (UniProt P82914),inactive: 0.04,inactive: -0.026,inactive: 0.023,inactive: 0.027,inactive: 0.004,–,inactive: -0.115,–,inactive: 0.049,inactive: 0.042,inactive: -0.037,inactive: -0.021,inactive: -0.01,inactive: -0.022,inactive: 0.058,inactive: -0.007,inactive: -0.017,inactive: 0.062,inactive: -0.048,inactive: 0.163
MT1G (UniProt P13640),inactive: 0.02,inactive: 0.068,inactive: -0.025,inactive: -0.091,inactive: -0.001,inactive: 0.048,inactive: -0.129,inactive: 0.002,inactive: -0.002,inactive: -0.083,inactive: -0.03,inactive: -0.049,inactive: -0.063,inactive: 0.133,–,–,inactive: -0.045,inactive: 0.011,inactive: 0.073,inactive: 0.031
MSH3 (UniProt P20585),inactive: 0.029,inactive: -0.033,inactive: -0.013,inactive: 0.002,inactive: -0.001,–,inactive: -0.019,–,inactive: -0.008,inactive: 0.047,inactive: 0.019,inactive: -0.032,inactive: -0.028,inactive: -0.101,inactive: -0.015,inactive: 0.062,inactive: 0.021,inactive: 0.053,inactive: -0.179,inactive: -0.003

# Whole records, quoted from the list. Order of values: log2 fold change [1]	log2 fold change [2]	log2 fold change [3]	log2 fold change [4]	log2 fold change [5]	log2 fold change [6]	log2 fold change [7]	log2 fold change [8]	log2 fold change [9]	log2 fold change [10]	log2 fold change [11]	log2 fold change [12]	log2 fold change [13]	log2 fold change [14]	log2 fold change [15]	log2 fold change [16]	log2 fold change [17]	log2 fold change [18]	log2 fold change [19]	log2 fold change [20]
# MTMR1 (UniProt Q13613) in the list: inactive: -0.175	inactive: 0.067	inactive: 0.083	–	inactive: -0.004	–	inactive: -0.008	inactive: -0.043	inactive: 0.156	inactive: -0.126	inactive: -0.158	inactive: 0.101	inactive: -0.043	inactive: 0.011	inactive: 0.121	inactive: -0.012	inactive: -0.066	inactive: 0.03	inactive: -0.013	–
# MT1G (UniProt P13640) in the list: inactive: 0.02	inactive: 0.068	inactive: -0.025	inactive: -0.091	inactive: -0.001	inactive: 0.048	inactive: -0.129	inactive: 0.002	inactive: -0.002	inactive: -0.083	inactive: -0.03	inactive: -0.049	inactive: -0.063	inactive: 0.133	–	–	inactive: -0.045	inactive: 0.011	inactive: 0.073	inactive: 0.031
